In article PMC11250262:
No constants are given. Whether binding was seen depends on the method and setting. Binding seen in cells or lysates may run through a third protein. Some results given as binding are weak or reduced against the parent protein; the word gives no strength.

Protein sequences, listed by entry. Tags and fused reporters are not part of them. Residues count along the entry.
UniProt P41968: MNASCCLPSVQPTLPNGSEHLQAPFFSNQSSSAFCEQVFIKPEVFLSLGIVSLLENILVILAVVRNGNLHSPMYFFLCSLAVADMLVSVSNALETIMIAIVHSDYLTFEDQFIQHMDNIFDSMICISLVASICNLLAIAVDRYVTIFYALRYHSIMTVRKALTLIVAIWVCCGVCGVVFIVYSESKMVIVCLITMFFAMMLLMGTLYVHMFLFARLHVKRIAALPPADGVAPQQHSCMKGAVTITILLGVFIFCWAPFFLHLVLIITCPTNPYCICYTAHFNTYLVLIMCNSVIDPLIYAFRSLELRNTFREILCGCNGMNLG
UniProt Q9NYM4, residues 17-423: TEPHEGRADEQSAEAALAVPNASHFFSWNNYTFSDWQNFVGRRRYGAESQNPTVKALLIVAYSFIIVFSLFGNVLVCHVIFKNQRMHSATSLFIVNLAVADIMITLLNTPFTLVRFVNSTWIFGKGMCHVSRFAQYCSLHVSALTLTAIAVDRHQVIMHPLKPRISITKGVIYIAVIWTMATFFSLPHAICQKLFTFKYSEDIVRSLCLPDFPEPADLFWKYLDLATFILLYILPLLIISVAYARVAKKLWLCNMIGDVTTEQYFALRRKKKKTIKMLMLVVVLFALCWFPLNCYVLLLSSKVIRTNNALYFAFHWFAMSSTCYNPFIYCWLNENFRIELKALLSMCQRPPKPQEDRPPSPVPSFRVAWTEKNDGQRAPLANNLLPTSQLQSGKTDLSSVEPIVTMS

Biological target: MC3R-RlucII (human) (UniProt P41968)
Experiment: FRET or BRET; BRET1 in titration configuration in HEK293 cells; constant MC3R-RlucII plasmid (0.5 ng per well), increasing doses of GPR83-Venus plasmid; soluble Venus as negative control; 24 h post-transfection, Tyrode's buffer, read 10 min after coelenterazine H; four independent experiments

For “GPR83-Venus (from UniProt Q9NYM4-1 17-423) (receptor)”, the binding was “binds”.
